# Values from PubChem BioAssay AID504764 (Drosophila RNAi Screening Center, 2011).
# Screen: 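Genome-wide screen for regulators of Notch-driven gene expression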 (primary screen)
# System: Drosophila Kc167 cells
# Reagents: long dsRNA against Drosophila genes
# Duration: about 5 days (4 days dsRNA, then 24 h after transfection)
# Challenge: transfection of constitutively active membrane-tethered Notch lacking the extracellular domain, read 24 h later
# Measurement: 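Firefly luciferase from an E(spl)m3 reporter with active Notch, plus control-promoter and uninduced reporter wells for normalisation; unnormalised counts, duplicate wells a and b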
# Reading the numbers: induced reporter light, run 1, well a and induced reporter light, run 1, well b: higher = more light from the Notch target reporter with active Notch; control promoter light, run 1, well a and control promoter light, run 1, well b: higher = more light from the viral control promoter (cell number, transfection, viability); uninduced reporter light, run 1, well a: higher = more light from the Notch target reporter without active Notch
# Rule for the call: 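Hit if the duplicate-averaged log2 ratio of induced to control-promoter light gives a plate-wise z beyond ±2, or induced to uninduced beyond ±1.8; weak-control or discordant-duplicate wells dropped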
# Meaning of the calls: active = modifier hit (raised or lowered Notch signal); inactive = not a hit
# In all, the deposit lists about 22,000 reagents; shown is an unselected part of those that have a named target and a result. Over the whole deposit, 403 (1.9%) got an active call. 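Unnormalised raw counts per well; ratio z-scores behind the hit calls and whether each hit raises or lowers signal are not deposited.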 A plus sign joins genes that one reagent is predicted to hit. Reagent sequences are not shown. The record does not give: the amount of reagent.
target gene,DRSC id,"induced reporter light, run 1, well a","induced reporter light, run 1, well b","control promoter light, run 1, well a","control promoter light, run 1, well b","uninduced reporter light, run 1, well a",call
CG8299 (GeneID 36751),DRSC07139,62220,79365,1.18e5,94610,6532,inactive
CG31327 (GeneID 318684),DRSC13019,1.11e5,1.11e5,1.37e5,1.07e5,8775,inactive
IntS6 (GeneID 31496),DRSC18281,1.52e5,1.42e5,1.08e5,99905,21910,active
Sec61beta (GeneID 46080),DRSC07548,1.13e5,1.10e5,1.20e5,1.12e5,10038,inactive
CG5250 (GeneID 42308),DRSC15752,1.86e5,1.81e5,2.24e5,2.27e5,12615,inactive
ord (GeneID 37687),DRSC04706,2.22e5,2.32e5,2.47e5,2.41e5,17700,inactive
CG9391 (GeneID 40346),DRSC11858,1.18e5,1.14e5,1.11e5,80010,8255,inactive
CG32726 (GeneID 318175),DRSC17521,88625,72900,83115,84435,5845,inactive
CG8320 + ATPCL,DRSC07147,1.51e5,1.10e5,1.06e5,1.10e5,7660,inactive
mthl1 (GeneID 32637),DRSC19905,71600,60230,61730,51790,6780,inactive
Pdcd4 (GeneID 32337),DRSC19360,79710,1.04e5,97385,1.14e5,15330,inactive
CG17637 (GeneID 40275),DRSC11740,1.08e5,78600,58095,57240,6155,inactive
Ppox (GeneID 42939),DRSC17033,1.66e5,1.58e5,2.05e5,1.93e5,12230,inactive
Sfp53D (GeneID 8673983),DRSC05625,80230,85620,1.04e5,74290,6055,inactive
Dh44-R1 (GeneID 36601),DRSC07172,90785,1.02e5,71950,84880,8115,inactive
Hex-A (GeneID 45875),DRSC18259,93290,79665,1.80e5,1.34e5,6320,inactive
CG14034 (GeneID 33751),DRSC02359,55890,39655,50075,42990,2840,inactive
drd (GeneID 318102),DRSC19343,1.16e5,1.34e5,1.30e5,1.21e5,18300,inactive
drd (GeneID 318102),DRSC21466,,,,,,inactive
CycB (GeneID 37618),DRSC04605,80535,81890,56295,70305,5770,inactive
M7BP (GeneID 35698),DRSC05932,2.15e5,1.91e5,1.92e5,1.91e5,18235,inactive
Samtor (GeneID 37934),DRSC04390,1.57e5,1.66e5,1.22e5,1.51e5,14255,inactive
kappaB-Ras + CG30503,DRSC06619,1.59e5,1.16e5,1.97e5,1.66e5,11770,inactive
kappaB-Ras + CG30503,DRSC07636,1.90e5,2.03e5,2.53e5,2.35e5,15705,inactive
CG33474 (GeneID 2768725),DRSC05218,2.98e5,3.29e5,4.43e5,4.05e5,25510,inactive
CG6171 (GeneID 41872),DRSC15982,1.60e5,1.66e5,1.24e5,1.31e5,11255,inactive
CG3618 (GeneID 40303),DRSC11746,89455,1.11e5,87950,80590,7255,inactive
CG7166 (GeneID 40401),DRSC11809,1.28e5,1.21e5,1.21e5,1.19e5,9200,inactive
Rchy1 (GeneID 33901),DRSC02542,30925,30555,24295,23180,5700,inactive
Hip14 (GeneID 39747),DRSC10570,1.02e5,1.06e5,84750,92200,9980,inactive
CG42399 (GeneID 33176),DRSC00322,1.22e5,1.30e5,1.07e5,62665,8195,inactive
CG42399 (GeneID 33176),DRSC00661,2.02e5,1.50e5,1.21e5,81070,12900,inactive
Mkp + CG34140,DRSC08585,55475,67830,64495,82790,4635,active

4 entries from above, reformatted:
target gene	DRSC id	induced reporter light, run 1, well a	induced reporter light, run 1, well b	control promoter light, run 1, well a	control promoter light, run 1, well b	uninduced reporter light, run 1, well a	call
CG6171 (GeneID 41872)	DRSC15982	1.60e5	1.66e5	1.24e5	1.31e5	11255	inactive
CG3618 (GeneID 40303)	DRSC11746	89455	1.11e5	87950	80590	7255	inactive
CG7166 (GeneID 40401)	DRSC11809	1.28e5	1.21e5	1.21e5	1.19e5	9200	inactive
Rchy1 (GeneID 33901)	DRSC02542	30925	30555	24295	23180	5700	inactive

Continued.
target gene,DRSC id,"induced reporter light, run 1, well a","induced reporter light, run 1, well b","control promoter light, run 1, well a","control promoter light, run 1, well b","uninduced reporter light, run 1, well a",call
Syn2 (GeneID 36848),DRSC06902,1.63e5,1.20e5,1.43e5,1.59e5,13000,inactive
Mos (GeneID 36404),DRSC07258,1.06e5,80550,1.50e5,1.26e5,8565,inactive
rdgC (GeneID 40224),DRSC11387,82045,52425,71165,58830,4580,inactive
Argp (GeneID 261628),DRSC16510,2.42e5,2.60e5,2.54e5,2.38e5,19915,inactive
CG4496 (GeneID 34000),DRSC02753,1.61e5,1.35e5,1.52e5,1.35e5,9355,inactive
ppk26 (GeneID 38835),DRSC10991,1.94e5,1.80e5,2.48e5,1.94e5,10515,inactive
sbb (GeneID 44027),DRSC05723,80185,63540,70385,62465,6225,inactive
sbb (GeneID 44027),DRSC07676,1.08e5,1.23e5,1.40e5,1.32e5,8170,inactive
Tapdelta (GeneID 45680),DRSC05946,1.36e5,1.48e5,1.14e5,1.15e5,12925,inactive
BORCS7 + CG13430,DRSC06392,1.04e5,1.11e5,2.01e5,2.03e5,8588,inactive
BORCS7 + CG13430,DRSC06707,1.45e5,1.61e5,2.17e5,2.76e5,6475,inactive
CG11920 (GeneID 43009),DRSC14439,1.28e5,1.31e5,1.69e5,1.84e5,9745,inactive
jing (GeneID 35555),DRSC04923,1.38e5,1.01e5,1.24e5,1.37e5,10245,inactive
jing (GeneID 35555),DRSC04927,90000,1.09e5,1.28e5,1.25e5,4785,inactive
jing (GeneID 35555),DRSC05000,1.79e5,1.92e5,1.39e5,1.24e5,16070,inactive
prt (GeneID 117368),DRSC16894,1.55e5,1.68e5,1.86e5,1.65e5,13995,inactive
CG4955 (GeneID 32692),DRSC19927,1.49e5,1.17e5,1.03e5,49385,11350,inactive
slou (GeneID 42547),DRSC17058,1.81e5,1.37e5,1.80e5,1.77e5,13060,inactive
Pgm2a (GeneID 35923),DRSC07068,94120,1.10e5,1.10e5,87075,8265,inactive
TwdlG (GeneID 40535),DRSC12229,61580,44525,36650,32245,3175,inactive
eIF3a (GeneID 40563),DRSC12339,5910,5335,6140,4775,520,inactive
CG32750 (GeneID 326238),DRSC18848,1.24e5,1.23e5,1.82e5,1.92e5,9255,inactive
FASN3 (GeneID 3355111),DRSC20882,98580,1.00e5,92620,1.18e5,9120,inactive
Arms (GeneID 37433),DRSC03856,68990,83695,91815,70520,7250,inactive
Arms (GeneID 37433),DRSC03857,67485,65530,66770,67125,7760,inactive
Arms (GeneID 37433),DRSC04052,1.79e5,1.61e5,1.28e5,1.27e5,13495,inactive
Arms (GeneID 37433),DRSC04256,39110,29020,15728,25075,4100,inactive
CG6650 (GeneID 39555),DRSC10685,1.27e5,1.62e5,1.26e5,1.10e5,9500,inactive
qsm (GeneID 47065),DRSC05896,1.07e5,1.30e5,1.57e5,1.48e5,8415,inactive
qsm (GeneID 47065),DRSC06393,1.38e5,1.71e5,2.23e5,2.62e5,9180,inactive
Pde11 (GeneID 35107),DRSC02028,2.11e5,1.68e5,3.85e5,3.39e5,12655,inactive
Pde11 (GeneID 35107),DRSC02460,40250,23750,41540,43155,4005,inactive
